Results deposited as PubChem BioAssay AID1224831 (NIAID, 2016)

Test: 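Genes that support or restrain LPS-induced TNF-alpha reporter activity in macrophage-like cells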 (follow-up of hits)
Cell system: human THP-1 B5 monocytic leukaemia cells carrying a TNF promoter luciferase reporter, made macrophage-like with PMA
Knock-down reagent: single siRNA against human genes, 50 nM
Timing: about 68 h of knock-down, then 4 h LPS
Challenge: LPS (Salmonella minnesota, TLR-grade) at 10 ng/ml for 4 h; PMA 5 ng/ml present during knock-down
Detection: 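TNF promoter reporter read as dual luciferase ratio after 4 h LPS, normalised per plate to its median, given as replicate mean robust z-score per siRNA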
Scale: TNF reporter z-score: higher = stronger LPS-induced TNF reporter signal; z-score, median over gene's siRNAs: higher = stronger TNF reporter signal across the gene's siRNAs
Rule for the call: 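Active when the replicate mean z-score is about -1 or lower, or about 1.5 or higher; lowered and raised TNF reporter signal both count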
Calls: active = changed TNF reporter (either direction); inactive = little change
The deposit covers about 3,500 reagents; below is a part drawn at random. 731 of them (21%) were called active. 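Active means either lowered or raised reporter signal; the gene-median score did not drive the per-siRNA calls.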 Entries without a mark were called inactive. The numbers tell different reagents against one gene apart.

| gene | reagent no. | TNF reporter z-score, replicate mean | z-score, median over gene's siRNAs |
| --- | --- | --- | --- |
| GHRL | 1 | -0.25 | 0.21 |
| GHRL | 2 | 0.24 | 0.21 |
| GHRL | 3 | 0.18 | 0.21 |
| GHRL | 4 | 0.28 | 0.21 |
| GHRL | 5 | -0.01 | 0.21 |
| GHRL | 6 | 0.7 | 0.21 |
| ELAVL3 | 1 | 1.45 | 0.67 |
| ELAVL3 | 2 | 1.15 | 0.67 |
| ELAVL3 | 3 | 0.19 | 0.67 |
| ELAVL3 | 4 | -0.38 | 0.67 |
| ELAVL3 | 5 | 2.66 (active) | 0.67 |
| ELAVL3 | 6 | -0.03 | 0.67 |
| SAMTOR | 1 | 0.06 | 0.25 |
| SAMTOR | 2 | 0.44 | 0.25 |
| SAMTOR | 3 | 0.48 | 0.25 |
| SAMTOR | 4 | -0.34 | 0.25 |
| SAMTOR | 5 | -0.22 | 0.25 |
| SAMTOR | 6 | 0.65 | 0.25 |
| ZNF625 | 1 | -0.39 | 0.02 |
| ZNF625 | 2 | 0.17 | 0.02 |
| ZNF625 | 3 | -0.13 | 0.02 |
| ZNF625 | 4 | -0.15 | 0.02 |
| ZNF625 | 5 | 0.94 | 0.02 |
| ZNF625 | 6 | 0.7 | 0.02 |
| GSTK1 | 1 | 2.19 (active) | 0.485 |
| GSTK1 | 2 | -0.38 | 0.485 |
| GSTK1 | 3 | 0.61 | 0.485 |
| GSTK1 | 4 | 4.02 (active) | 0.485 |
| GSTK1 | 5 | 0.36 | 0.485 |
| GSTK1 | 6 | -0.02 | 0.485 |
| LYSMD3 | 1 | -0.73 | -0.005 |
| LYSMD3 | 2 | 1.74 (active) | -0.005 |
| LYSMD3 | 3 | -0.63 | -0.005 |
| LYSMD3 | 4 | 0.58 | -0.005 |
| LYSMD3 | 5 | 1.32 | -0.005 |
| LYSMD3 | 6 | -0.59 | -0.005 |
| AKAP6 | 1 | 0.3 | 0.08 |
| AKAP6 | 2 | 1.08 | 0.08 |
| AKAP6 | 3 | -0.14 | 0.08 |
| AKAP6 | 4 | -0.14 | 0.08 |
| AKAP6 | 5 | -0.27 | 0.08 |
| AKAP6 | 6 | 0.87 | 0.08 |
| HR | 1 | 0.27 | -0.45 |
| HR | 2 | -1.39 (active) | -0.45 |
| HR | 3 | -0.99 | -0.45 |
| HR | 4 | 1.25 | -0.45 |
| HR | 5 | -0.26 | -0.45 |
| HR | 6 | -0.64 | -0.45 |
| PRKG1 | 1 | 0.89 | -0.25 |
| PRKG1 | 2 | 0.25 | -0.25 |
| PRKG1 | 3 | -0.98 | -0.25 |
| PRKG1 | 4 | -0.75 | -0.25 |
| PRKG1 | 5 | -1.51 (active) | -0.25 |
| PRKG1 | 6 | 1.16 | -0.25 |

The list goes on, starting with the last 6 of the part before.
| gene | reagent no. | TNF reporter z-score, replicate mean | z-score, median over gene's siRNAs |
| --- | --- | --- | --- |
| PRKG1 | 1 | 0.89 | -0.25 |
| PRKG1 | 2 | 0.25 | -0.25 |
| PRKG1 | 3 | -0.98 | -0.25 |
| PRKG1 | 4 | -0.75 | -0.25 |
| PRKG1 | 5 | -1.51 (active) | -0.25 |
| PRKG1 | 6 | 1.16 | -0.25 |
| RUNX2 | 1 | -0.16 | 0.885 |
| RUNX2 | 2 | -0.17 | 0.885 |
| RUNX2 | 3 | 0.99 | 0.885 |
| RUNX2 | 4 | 0.78 | 0.885 |
| RUNX2 | 5 | 2.15 (active) | 0.885 |
| RUNX2 | 6 | 3.35 (active) | 0.885 |
| IPMK | 1 | -0.53 | -0.085 |
| IPMK | 2 | -0.71 | -0.085 |
| IPMK | 3 | 1.27 | -0.085 |
| IPMK | 4 | -0.18 | -0.085 |
| IPMK | 5 | 0.2 | -0.085 |
| IPMK | 6 | 0.01 | -0.085 |
| SF3B1 | 1 | -0.53 | -1.27 |
| SF3B1 | 2 | -1.85 (active) | -1.27 |
| SF3B1 | 3 | -1.44 (active) | -1.27 |
| SF3B1 | 4 | -1.1 (active) | -1.27 |
| SF3B1 | 5 | -1.83 (active) | -1.27 |
| SF3B1 | 6 | -0.66 | -1.27 |
| SYNJ2BP | 1 | -0.62 | 0.24 |
| SYNJ2BP | 2 | 0.38 | 0.24 |
| SYNJ2BP | 3 | 0.39 | 0.24 |
| SYNJ2BP | 4 | -0.51 | 0.24 |
| SYNJ2BP | 5 | 0.81 | 0.24 |
| SYNJ2BP | 6 | 0.1 | 0.24 |
| INTS6 | 1 | 1.55 (active) | 1.68 |
| INTS6 | 2 | 1.12 | 1.68 |
| INTS6 | 3 | 2.64 (active) | 1.68 |
| INTS6 | 4 | 1.8 (active) | 1.68 |
| INTS6 | 5 | 1.9 (active) | 1.68 |
| INTS6 | 6 | 1.35 | 1.68 |
